No constants are given. Whether binding was seen depends on the method and setting.
How the values were obtained:
ASF1a (1–156) (human) [1] = molecular target: ASF1a (1–156) (human) (UniProt Q9Y294); assay: SEC-MALS; Superdex 200 10/300 GL Increase, 50 mM Tris pH 8.0, 0.5 M NaCl, 20°C; both purified
ASF1a (1–156) (human) [2] = molecular target: ASF1a (1–156) (human) (UniProt Q9Y294); assay: SEC-MALS; Superdex 200 10/300 GL Increase, 50 mM Tris pH 8.0, 1.5 M NaCl; for H3-H4 alone: tetramer of two H3-H4 dimers; both purified

By UniProt entry, the sequences of proteins in these tests, tags left out. Residues count along the entry.
UniProt Q9Y294, residues 1-156: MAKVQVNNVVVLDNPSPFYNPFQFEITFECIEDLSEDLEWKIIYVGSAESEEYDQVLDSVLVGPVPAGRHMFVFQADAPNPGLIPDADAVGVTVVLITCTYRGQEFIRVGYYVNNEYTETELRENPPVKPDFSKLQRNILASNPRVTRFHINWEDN

ASF1a (1–156) (from UniProt Q9Y294 1-156) (domain or fragment; other documents disagree on this pair)
binding (ASF1a (1–156) (human) [1]): no binding | binding (ASF1a (1–156) (human) [2]): no binding
